{"source": "paper PMC2998434", "about": "“Domain Swapping in Allosteric Modulation of DNA Specificity” (PLoS Biology, 2010)", "key": {"SgrAI P27W": {"target": "T1, SgrAI P27W (UniProt Q9F6L0)", "T1 sequence (looked up)": "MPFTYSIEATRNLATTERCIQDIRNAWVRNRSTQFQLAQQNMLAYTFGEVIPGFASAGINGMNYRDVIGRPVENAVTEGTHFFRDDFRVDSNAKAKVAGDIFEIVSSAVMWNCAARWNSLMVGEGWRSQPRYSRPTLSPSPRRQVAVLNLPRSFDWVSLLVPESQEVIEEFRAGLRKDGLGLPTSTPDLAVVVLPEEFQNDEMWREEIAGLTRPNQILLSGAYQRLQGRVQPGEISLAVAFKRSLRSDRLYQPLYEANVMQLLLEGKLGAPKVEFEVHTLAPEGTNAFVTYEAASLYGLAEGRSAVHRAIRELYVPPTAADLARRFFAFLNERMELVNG", "test": "EMSA (native PAGE)", "settings": "10 mM Ca2+, 1 uM SgrAI, no HMWS with PCP, native PAGE: same binding buffer, 30 min at 4 C, gel 89 mM Tris-borate with 10 mM Ca2+. Wild-type Kd values in Table 2 are cited from Park 2010 and not listed, recombinant protein, residues 1-339, label: 5' HEX on both strands (FPA), 5' 32P (native gel), letters put together from the description"}, "SgrAI P27G": {"target": "T2, SgrAI P27G (UniProt Q9F6L0)", "T2 sequence (looked up)": "T1 sequence (looked up) with W27G", "test": "EMSA (native PAGE)", "settings": "10 mM Ca2+, 1 uM SgrAI, no HMWS with PCP, native PAGE: same binding buffer, 30 min at 4 C, gel 89 mM Tris-borate with 10 mM Ca2+. Wild-type Kd values in Table 2 are cited from Park 2010 and not listed, recombinant protein, residues 1-339, label: 5' HEX on both strands (FPA), 5' 32P (native gel), letters put together from the description"}}, "note": "Changes are numbered by the printed parent chain. For at least one entry, the source does not settle the construct or the ends of the probe. At least one verdict was read from the data and is not stated in words by the source. Where a protein sequence is shown, tags need not be part of it."}
{"sequence": "AAGTCCACCGGTGGACTT (double strand) [18-1 (primary site)]", "values": [{"measurement": "binding result", "setting": "SgrAI P27W", "result": "binds"}, {"measurement": "binding result", "setting": "SgrAI P27G", "result": "binds"}]}
